Test results published in US20200199207A1.
No constants are given. Whether binding was seen depends on the method and setting. Some results given as binding are weak or reduced against the parent protein; the word gives no strength.

T1: nAra h 1 (peanut) (UniProt P43238)
T1 sequence (looked up): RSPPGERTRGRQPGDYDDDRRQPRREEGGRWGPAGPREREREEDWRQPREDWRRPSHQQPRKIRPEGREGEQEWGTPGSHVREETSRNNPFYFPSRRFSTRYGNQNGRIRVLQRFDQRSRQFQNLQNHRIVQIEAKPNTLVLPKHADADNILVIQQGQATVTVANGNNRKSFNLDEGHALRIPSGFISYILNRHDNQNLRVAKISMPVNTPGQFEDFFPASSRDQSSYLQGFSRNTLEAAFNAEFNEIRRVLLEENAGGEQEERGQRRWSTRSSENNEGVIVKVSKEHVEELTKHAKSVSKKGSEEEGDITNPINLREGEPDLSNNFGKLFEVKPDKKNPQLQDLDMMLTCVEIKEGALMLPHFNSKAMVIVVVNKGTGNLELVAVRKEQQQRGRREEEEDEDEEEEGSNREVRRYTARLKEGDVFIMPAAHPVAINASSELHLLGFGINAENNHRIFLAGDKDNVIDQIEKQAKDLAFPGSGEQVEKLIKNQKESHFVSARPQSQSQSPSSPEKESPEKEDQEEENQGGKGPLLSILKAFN

T2: nAra h 2 (peanut) (UniProt Q6PSU2)
T2 sequence (looked up): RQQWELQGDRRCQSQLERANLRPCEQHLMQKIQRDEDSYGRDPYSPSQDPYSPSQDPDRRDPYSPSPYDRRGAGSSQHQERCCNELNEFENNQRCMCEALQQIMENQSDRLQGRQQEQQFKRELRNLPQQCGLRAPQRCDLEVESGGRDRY

T3: nAra h 6 (peanut) (UniProt Q647G9)
T3 sequence (looked up): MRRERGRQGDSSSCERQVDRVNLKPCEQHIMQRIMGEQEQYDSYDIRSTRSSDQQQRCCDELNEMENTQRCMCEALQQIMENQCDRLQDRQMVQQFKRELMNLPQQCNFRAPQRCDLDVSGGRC

T4: rAra h 2 (peanut) (UniProt Q6PSU2)
T4 sequence (looked up): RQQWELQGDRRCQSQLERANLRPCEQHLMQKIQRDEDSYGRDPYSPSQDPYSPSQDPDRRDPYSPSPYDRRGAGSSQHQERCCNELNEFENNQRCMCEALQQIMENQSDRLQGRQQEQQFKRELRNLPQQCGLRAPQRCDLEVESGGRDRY


Experiments:
Experiment in all cases: ELISA, antigen-coated plate (FIG. 3)
[1] = biological target: T1, nAra h 1 (peanut)
[2] = biological target: T2, nAra h 2 (peanut)
[3] = biological target: T3, nAra h 6 (peanut)
[4] = biological target: T4, rAra h 2 (peanut)

Row | binding [1] | binding [2] | binding [3] | binding [4] | Binder
1 | binds | binds | binds | binds | h32B10 (antibody, V domains shown) VH: QVQLVQSGAEVKKPGASVKVSCRASGYIFRNFDINWVRQATGQGLEWMGWMSPKSGDTGYAQKFQGRVTMTRDTSINTAYMELSSLTSEDSAVYYCARGVDGTNWGQGTRVTVSS VL: DIVMTQSPDSLGVSLGERATISCKSSQSILDNSNNKNFIAWFQQKPGQPPKLLIYWASARESGVPDRFSGSGSGTEFTLTINSLQAEDVAVYYCYQYYSTPHTFGQGTKLDLR
2 | binds | binds | binds | binds | h2F8 (antibody, V domains shown) VH: EVQLVESGGGLVKPGGSLRLSCAASGFIFSDYNMNWVRQAPGKGLEWVSSITRSSRTIYYADSVKGRFTISRDNAKNSLHLQMNSLRDADTAVYYCAREDFDVSTGPYYMDVWGNGTTVIVSS VL: EIVLTQSPGTLSLSPGERATLSCRASQSVSNMFLVWYQQKPGQAPRLLMYGASTRATDIPDRFSGSGSGTDFTLTISRLEPEDFAVYYCQQNGNSPYTFGQGTKLEIK
3 | binds | binds | binds | binds | h4B2 (antibody, V domains shown) VH: QVQLQEAGPRLVKPSQTLSVTCTVSGASITIGGYYWSWIRQHPGKGLEWMGYIYSNGRTYYNPSLKSRIAMSIDTSKNQFSLKLTSVTAADTAIYFCAREAWETPLWGQGTLITVSS VL: DIQMTQSPSSLSASVGDRVTITCQANQDIVNSLNWFQHKPGTAPKVLIYDASKLETGVPSRFSGSGSGTHFTFTISGLQPEDFATYFCQQYENLPHTFGQGTKLEIR
4 | binds | binds | binds | binds | h7G6 (antibody, V domains shown) VH: QVQLVESGGGVVQPGRSLRLSCAASGIAFNDYTMHWVRRSPDKGLEWVAAISYGGTNKYYADSVKGRFTISRDSSKNTLFLQMDSLRVEDTAVYYCARDSGYRSLLHWGQGTLVTVSS VL: EIVLTQSPLSLPVTPGEPASISCRSSQSLVHRNGYNYLDWYLQKPGQSPQLLIYMASKRASGVPDRFSGSGSGTEFTLKISRVEAEDVGIYYCMQALQTWTFGQGTKVEVN
5 | binds | binds | binds | binds | h37D5 (antibody, V domains shown) VH: EEQLVESGGRLLRPGESLSLSCAAVGFNFGDFGMAWVRQPPGKGLEWVAGINWSGHSTGFVDSMKGRLTISRDSAKSSLFLQMNSLRGEDTAVYYCARVGRLCSGDICDSMGAFDLWGQGTMVTVSS VL: DIQMTQSPSTLSASIGDRVTITCRASQTIDNWLAWYQQRPGKAPKLLIYQASSLQSGVSSRFRGSGSGTEFTLTITSLQPDDFATYYCQKSNGYSRTFGQGTKVEIK
6 | binds | binds | binds | binds | h12G10 (antibody, human IgG1, V domains shown) VH: EVQLLESGGRLLRPGGSLSLSCVASGFYFGDFGMSWVRQVPGKGLEWVSGIDWSGRSTGYVDSMKGRLTISRDNDKSSLYLQMNDLRGEDTAVYYCARVGRLCSGDSCDSMGAFDLWGQGTMVTVSS VL: DIQLTQSPSTLSASIGDSVTITCRASQNIDNWLAWYQQKPGKAPRLLIYKASSLGSGVSSKFRGSGFGTEFTLTITSLQPDDFATYYCQKSNGYSRTFGQGTKVDIK
